Measurements reported in PubChem BioAssay AID652259 (Drosophila RNAi Screening Center, 2013).
Purpose: 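Knock-downs that push a Wingless-driven reporter up or down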 (primary screen). Cell system: Drosophila clone 8 imaginal disc epithelial cells. Reagents: long dsRNA against Drosophila genes. Challenge: pathway stimulated by co-transfected Wingless expression plasmid. Measured: 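Firefly luciferase from a tcf-site Wingless reporter, measured alongside co-transfected Renilla luciferase that tracks transfection; pathway stimulated by a Wingless plasmid; the firefly-to-Renilla ratio is not deposited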. Direction: firefly reporter light: higher = more Wg reporter light, before normalisation; Renilla control light: higher = more transfected or surviving cells. Call rule: 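a knock-down is a candidate when at least two out of four statistical tests show it departing from its plate mean; one test alone signals a weak candidate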. Calls: active = candidate regulator (raises or lowers reporter); inactive = not a candidate.
The deposit covers about 22,000 reagents; below is an unselected part of those with a known target gene and a result. Of all reagents, 233 (1.1%) were called active. 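Light values are raw, unnormalised plate reads; the ratio scores behind the reporter calls were not deposited.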 Unmarked entries are inactive. Not stated in the record: the amount of reagent, the time to read-out, the dose of the treatment.

Against gb (genderblind) [DRSC15961], the entry reads firefly reporter light, replicate 1 = 2934; firefly reporter light, replicate 2 = 5907; Renilla control light, replicate 1 = 1488; Renilla control light, replicate 2 = 2339.
Depletion of atilla [DRSC02971] came out at: firefly reporter light, replicate 1 = 3605; firefly reporter light, replicate 2 = 9428; Renilla control light, replicate 1 = 1465; Renilla control light, replicate 2 = 4347.
After knock-down of kel (kelch) [DRSC03554] the results were firefly reporter light, replicate 1 = 2835; firefly reporter light, replicate 2 = 4598; Renilla control light, replicate 1 = 1219; Renilla control light, replicate 2 = 2055.
Depletion of CG2924 [DRSC18525] resulted in: firefly reporter light, replicate 1 = 3353; firefly reporter light, replicate 2 = 10832; Renilla control light, replicate 1 = 1197; Renilla control light, replicate 2 = 2950.
CG6418 [DRSC10633] showed firefly reporter light, replicate 1 = 1811; Renilla control light, replicate 1 = 1040.
Against CG15635 [DRSC00470] the deposit lists firefly reporter light, replicate 1 = 2683; firefly reporter light, replicate 2 = 8688; Renilla control light, replicate 1 = 1126; Renilla control light, replicate 2 = 2129.
Silencing of CG15635 [DRSC22873] came out at: firefly reporter light, replicate 1 = 5.06e5; firefly reporter light, replicate 2 = 4.70e5; Renilla control light, replicate 1 = 2.05e5; Renilla control light, replicate 2 = 112.
After knock-down of Pis (Phosphatidylinositol synthase) [DRSC20178] the results were firefly reporter light, replicate 1 = 25325; Renilla control light, replicate 1 = 10984.
Coa7 (Cytochrome c oxidase assembly factor 7) [DRSC20967] showed firefly reporter light, replicate 1 = 19248; Renilla control light, replicate 1 = 10185.
Against CG2698 [DRSC15447], the entry reads firefly reporter light, replicate 1 = 18499; Renilla control light, replicate 1 = 4196.
Knock-down of CG32773 (retired record) [DRSC17330] came out at: firefly reporter light, replicate 1 = 4554; Renilla control light, replicate 1 = 1392.
p53 [DRSC17024] gave firefly reporter light, replicate 1 = 3788; firefly reporter light, replicate 2 = 6439; Renilla control light, replicate 1 = 1484; Renilla control light, replicate 2 = 1780.
For Daao1 (D-amino acid oxidase 1) [DRSC06131] the deposit lists firefly reporter light, replicate 1 = 1396; firefly reporter light, replicate 2 = 6692; Renilla control light, replicate 1 = 523; Renilla control light, replicate 2 = 3313.
After knock-down of Eig71Eg (Ecdysone-induced gene 71Eg) [DRSC11154], the record shows firefly reporter light, replicate 1 = 8243; Renilla control light, replicate 1 = 3959.
For Rala (Ras-like protein A) [DRSC18703], the values are firefly reporter light, replicate 1 = 14739; Renilla control light, replicate 1 = 10086.
Against Gem3 (Gemin 3) [DRSC11144], the entry reads firefly reporter light, replicate 1 = 6492; Renilla control light, replicate 1 = 2888.
dlp (dally-like) [DRSC10281] gave reporter change call, replicate 1 = Wg reporter activity raised (active); firefly reporter light, replicate 1 = 5124; Renilla control light, replicate 1 = 589.
After knock-down of dlp (dally-like) [DRSC10472], the record shows reporter change call, replicate 1 = Wg reporter activity raised (active); firefly reporter light, replicate 1 = 11012; Renilla control light, replicate 1 = 882.
Silencing of Adgf-A (Adenosine deaminase-related growth factor A) [DRSC10566] came out at: firefly reporter light, replicate 1 = 4880; Renilla control light, replicate 1 = 1657.
With knock-down of CG1662 [DRSC19754], the screen gave firefly reporter light, replicate 1 = 4129; firefly reporter light, replicate 2 = 9035; Renilla control light, replicate 1 = 1204; Renilla control light, replicate 2 = 2848.
CG13724 [DRSC10053] showed firefly reporter light, replicate 1 = 11770; Renilla control light, replicate 1 = 3456.
For CG33796 [DRSC09417], the entry reads firefly reporter light, replicate 1 = 3050; Renilla control light, replicate 1 = 1969.
Against Ifrd1 (Interferon-related developmental regulator 1) [DRSC00415], the entry reads firefly reporter light, replicate 1 = 3569; firefly reporter light, replicate 2 = 6664; Renilla control light, replicate 1 = 1370; Renilla control light, replicate 2 = 1509.
With knock-down of Ifrd1 (Interferon-related developmental regulator 1) [DRSC00566], the screen gave firefly reporter light, replicate 1 = 2905; firefly reporter light, replicate 2 = 8402; Renilla control light, replicate 1 = 1533; Renilla control light, replicate 2 = 2128.
Against CG33298 [DRSC02210], the entry reads firefly reporter light, replicate 1 = 1443; firefly reporter light, replicate 2 = 7114; Renilla control light, replicate 1 = 658; Renilla control light, replicate 2 = 2374.
Knock-down of CG33298 [DRSC02672] resulted in: firefly reporter light, replicate 1 = 8314; Renilla control light, replicate 1 = 2336.

Just “firefly reporter light, replicate 1” (2 entries from above):
gb (genderblind) [DRSC15961]: 2934
atilla [DRSC02971]: 3605
